This note sets out measurements from patent US20210380632 (published 2021).

Square brackets hold non-standard residues; d marks the D form. * marks the point of attachment. Met(O) = CS(=O)CC[C@H](N)C(=O)O; ClZ = O=C(OCc1ccccc1Cl)*; Boc = CC(C)(C)OC(=O)*; OBn = c1ccc(CO*)cc1; Bn = c1ccc(C*)cc1

The nature of the series: general procedure: solution-phase peptide synthesis; EDC hydrochloride with HOBt.H2O or HOOBt.

For the substance Boc-Glu(OBzl)-Ala-Val-Arg(Z)2-Leu-OH, the “crude purity (method not given)” value (late stage modification step) is given as 96.5%.

Regarding “Boc-His(BOM)-Gly-Glu(OBzl)-Gly-Thr(Bzl)-Phe-Thr(Bzl)-Ser(Bzl)-Asp(OBzl)-Leu-O(4-NBn)”, the “crude purity (method not given)” value (coupling step) is recorded as 93.5%.

As to Boc-S(Bn)K(ClZ)Q[Met(O)]E(OBn)E(OBn)-OH, the “crude purity (method not given)” value (late stage modification step) stood at 94.6%.
